Test results taken from patent US20020164348A1 (priority 2000, published 2002).
No constants are given. Whether binding was seen depends on the method and setting. Some entries that bind do so weakly or less than the wild type.

The chains behind the UniProt entries cited, without tags or fusion partners. Where a name states a change or a piece, a line headed by the entry shows the natural chain unless it says otherwise. Residues count along the entry.
UniProt P03303, residues 1720-2179: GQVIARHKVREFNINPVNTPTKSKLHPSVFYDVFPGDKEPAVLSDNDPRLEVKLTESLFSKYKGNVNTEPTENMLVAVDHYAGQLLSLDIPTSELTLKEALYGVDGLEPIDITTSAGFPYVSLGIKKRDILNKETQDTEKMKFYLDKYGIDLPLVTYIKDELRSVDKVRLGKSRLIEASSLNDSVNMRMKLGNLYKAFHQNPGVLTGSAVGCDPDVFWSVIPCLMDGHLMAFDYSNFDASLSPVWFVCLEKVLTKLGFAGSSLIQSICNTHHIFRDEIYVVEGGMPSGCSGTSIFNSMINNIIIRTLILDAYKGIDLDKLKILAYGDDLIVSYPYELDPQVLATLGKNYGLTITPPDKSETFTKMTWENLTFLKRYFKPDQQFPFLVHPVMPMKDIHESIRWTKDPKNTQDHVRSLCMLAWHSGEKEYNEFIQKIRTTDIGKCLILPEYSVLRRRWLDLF
UniProt P03317, residues 1904-2513: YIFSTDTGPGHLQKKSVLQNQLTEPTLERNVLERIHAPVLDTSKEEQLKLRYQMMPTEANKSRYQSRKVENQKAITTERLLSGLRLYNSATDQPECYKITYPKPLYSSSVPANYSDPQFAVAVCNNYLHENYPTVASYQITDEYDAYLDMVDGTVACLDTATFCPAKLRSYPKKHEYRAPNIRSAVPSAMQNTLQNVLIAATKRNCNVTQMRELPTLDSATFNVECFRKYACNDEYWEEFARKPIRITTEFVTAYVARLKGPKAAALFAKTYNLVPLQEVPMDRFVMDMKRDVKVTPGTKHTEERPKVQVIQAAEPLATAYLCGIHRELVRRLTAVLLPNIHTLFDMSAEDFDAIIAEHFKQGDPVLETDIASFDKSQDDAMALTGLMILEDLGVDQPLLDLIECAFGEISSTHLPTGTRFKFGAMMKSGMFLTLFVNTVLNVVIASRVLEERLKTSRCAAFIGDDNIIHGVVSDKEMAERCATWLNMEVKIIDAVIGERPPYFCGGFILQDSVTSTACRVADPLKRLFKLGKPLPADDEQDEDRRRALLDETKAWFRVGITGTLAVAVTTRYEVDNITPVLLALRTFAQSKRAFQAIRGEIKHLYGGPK
UniProt P0A7C2: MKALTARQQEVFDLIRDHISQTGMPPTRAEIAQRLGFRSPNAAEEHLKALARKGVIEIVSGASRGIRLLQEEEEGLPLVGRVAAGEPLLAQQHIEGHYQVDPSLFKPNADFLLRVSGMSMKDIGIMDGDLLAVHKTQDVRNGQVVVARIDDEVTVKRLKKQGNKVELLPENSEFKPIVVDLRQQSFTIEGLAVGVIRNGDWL

Experiments:
[1] = molecular target: pJG-human rhinovirus 14 3D prey fusion (human rhinovirus 14) (UniProt P03303); assay: yeast two-hybrid, blue colour on X-gal plates; bait in row, prey in column
[2] = molecular target: pJG-Sindbis virus nsP4 prey fusion (Sindbis virus) (UniProt P03317); assay: as above
[3] = molecular target: pJG-human rhinovirus 14 3D prey fusion (human rhinovirus 14) (UniProt P03303); assay: yeast two-hybrid
[4] = molecular target: pJG-Sindbis virus nsP4 prey fusion (Sindbis virus) (UniProt P03317); assay: yeast two-hybrid

Measured: binding

LexA-human rhinovirus 14 3D bait fusion (from UniProt P0A7C2 1-202; P03303 1720-2179)
binds: all assays above
